These are yes or no findings as the source states them, for the method shown. In cells and extracts the contact can be indirect. Some entries that bind do so weakly or less than the wild type.
Target: Brg1 (mouse (endogenous in O9-1)) (UniProt Q3TKT4)
Experiment: co-IP; extracts (RIPA buffer) of O9-1 cells transfected with control siRNA (for Brg1-Yap also BAF155 or BAF155/170 siRNA, 72 h); IP with anti-pan Tead or anti-Brg1 antibody at 4°C overnight, protein A-agarose beads, IgG control; western blot for Brg1 or Yap

Amino acid sequences for entries named in this document (tags omitted).
UniProt Q3TKT4: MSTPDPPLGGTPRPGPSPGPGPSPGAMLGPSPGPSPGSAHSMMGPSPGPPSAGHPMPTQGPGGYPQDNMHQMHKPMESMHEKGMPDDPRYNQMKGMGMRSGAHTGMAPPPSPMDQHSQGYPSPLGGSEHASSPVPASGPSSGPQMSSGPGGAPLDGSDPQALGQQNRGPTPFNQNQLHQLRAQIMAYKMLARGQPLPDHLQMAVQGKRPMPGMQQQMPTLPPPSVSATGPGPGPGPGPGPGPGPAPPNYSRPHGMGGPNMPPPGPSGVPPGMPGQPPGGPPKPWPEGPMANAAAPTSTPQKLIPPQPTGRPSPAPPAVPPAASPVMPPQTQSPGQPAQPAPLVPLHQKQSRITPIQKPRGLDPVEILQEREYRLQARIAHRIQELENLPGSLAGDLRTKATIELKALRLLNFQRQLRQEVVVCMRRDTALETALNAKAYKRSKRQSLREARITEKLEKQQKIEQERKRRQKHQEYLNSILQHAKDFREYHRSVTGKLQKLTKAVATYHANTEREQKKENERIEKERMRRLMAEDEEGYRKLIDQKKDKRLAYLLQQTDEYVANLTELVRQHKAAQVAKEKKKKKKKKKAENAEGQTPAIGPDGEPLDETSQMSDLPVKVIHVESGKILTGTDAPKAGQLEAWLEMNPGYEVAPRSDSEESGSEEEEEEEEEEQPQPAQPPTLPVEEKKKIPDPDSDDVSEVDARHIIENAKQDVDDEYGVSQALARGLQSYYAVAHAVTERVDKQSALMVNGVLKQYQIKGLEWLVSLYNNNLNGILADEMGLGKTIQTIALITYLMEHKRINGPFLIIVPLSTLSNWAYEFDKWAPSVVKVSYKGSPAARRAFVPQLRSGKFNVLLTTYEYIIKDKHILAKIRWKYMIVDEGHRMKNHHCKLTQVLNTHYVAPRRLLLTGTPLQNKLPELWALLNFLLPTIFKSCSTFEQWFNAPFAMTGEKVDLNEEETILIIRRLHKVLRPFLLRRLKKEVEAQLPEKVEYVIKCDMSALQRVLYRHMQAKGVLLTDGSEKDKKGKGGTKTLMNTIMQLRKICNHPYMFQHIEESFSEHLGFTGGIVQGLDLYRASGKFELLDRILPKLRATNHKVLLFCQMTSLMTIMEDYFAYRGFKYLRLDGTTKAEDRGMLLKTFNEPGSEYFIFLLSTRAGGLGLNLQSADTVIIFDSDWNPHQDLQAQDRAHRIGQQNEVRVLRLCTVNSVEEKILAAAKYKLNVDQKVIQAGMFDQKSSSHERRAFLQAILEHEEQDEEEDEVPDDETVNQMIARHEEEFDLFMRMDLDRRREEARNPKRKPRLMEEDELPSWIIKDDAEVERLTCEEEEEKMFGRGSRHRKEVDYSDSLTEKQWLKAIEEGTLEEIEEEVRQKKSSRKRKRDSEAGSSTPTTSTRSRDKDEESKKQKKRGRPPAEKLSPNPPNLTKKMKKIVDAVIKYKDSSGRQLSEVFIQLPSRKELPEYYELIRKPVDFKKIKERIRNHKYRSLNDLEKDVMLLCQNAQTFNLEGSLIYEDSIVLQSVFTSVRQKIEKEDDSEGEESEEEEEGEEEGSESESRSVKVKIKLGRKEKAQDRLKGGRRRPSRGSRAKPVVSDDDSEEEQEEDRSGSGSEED
UniProt P46938: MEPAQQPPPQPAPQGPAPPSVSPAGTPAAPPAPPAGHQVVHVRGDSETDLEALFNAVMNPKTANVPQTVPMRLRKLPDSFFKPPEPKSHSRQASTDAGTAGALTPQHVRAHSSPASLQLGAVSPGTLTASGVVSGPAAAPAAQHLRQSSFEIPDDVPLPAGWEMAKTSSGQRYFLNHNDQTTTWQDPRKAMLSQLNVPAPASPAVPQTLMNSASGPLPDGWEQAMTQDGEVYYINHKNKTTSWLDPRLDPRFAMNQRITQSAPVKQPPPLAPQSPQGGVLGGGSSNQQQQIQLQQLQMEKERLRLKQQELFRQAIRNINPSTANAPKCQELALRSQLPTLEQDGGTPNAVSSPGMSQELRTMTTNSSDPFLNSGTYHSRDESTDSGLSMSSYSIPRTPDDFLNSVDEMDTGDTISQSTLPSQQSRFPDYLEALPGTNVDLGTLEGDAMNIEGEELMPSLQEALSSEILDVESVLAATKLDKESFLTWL

binding: binds
Substance: Yap (from UniProt P46938 1-488)
